Where a chain is given by its changes, count along the chain named. No constants are given. Whether binding was seen depends on the method and setting. Some results given as binding are weak or reduced against the parent protein; the word gives no strength. Blank lines part the entries; values can stand above or below the binder they belong to.
Legend:
hTRBC1, BIM0444 (human) [1] = biological target: hTRBC1, BIM0444 (human) (UniProt P01850); assay: ELISA (FIG. 7)
hTRBC1, BIM0444 (human) [2] = biological target: hTRBC1, BIM0444 (human) (UniProt P01850); assay: ELISA; antibody coated at 1 ug/mL, hTRBC1 BIM0444 titrated, anti-his tag HRP detection
hTRBC1, BIM0444 (human) [3] = biological target: hTRBC1, BIM0444 (human) (UniProt P01850); assay: BLI (Octet); hTRBC1 BIM0444 loaded on Protein A biosensors, Fab 50 nM to 0.78 nM in solution
hTRBC1, BIM0444 (human) [4] = biological target: hTRBC1, BIM0444 (human) (UniProt P01850); assay: BLI (Octet) (FIG. 8)

Amino acid sequences for entries named in this document (tags omitted). Residues count along the entry.
UniProt P01850, residues 1-129: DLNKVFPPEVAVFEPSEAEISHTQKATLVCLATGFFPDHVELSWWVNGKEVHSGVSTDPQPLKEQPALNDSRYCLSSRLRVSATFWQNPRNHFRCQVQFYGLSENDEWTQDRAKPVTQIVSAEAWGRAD

binding (hTRBC1, BIM0444 (human) [1]): binds | binding (hTRBC1, BIM0444 (human) [2]): binds
B1: JOVI.1 (murine anti-TRBC1 antibody, bivalent mAb) (antibody, V domains shown)
VH: EVRLQQSGPDLIKPGASVKMSCKASGYTFTGYVMHWVKQRPGQGLEWIGFINPYNDDIQSNERFRGKATLTSDKSSTTAYMELSSLTSEDSAVYYCARGAGYNFDGAYRFFDFWGQGTTLTVSS
VL: DVVMTQSPLSLPVSLGDQASISCRSSQRLVHSNGNTYLHWYLQKPGQSPKLLIYRVSNRFPGVPDRFSGSGSGTDFTLKISRVEAEDLGIYFCSQSTHVPYTFGGGTKLEIK

binding (hTRBC1, BIM0444 (human) [3]): binds | binding (hTRBC1, BIM0444 (human) [4]): binds
B2: BIM0460 (humanized JOVI.1 Fab) (Fab, V domains shown)
VH: QVQLVQSGAEVKKPGSSVKVSCKASGYTFTGYVMHWVRQAPGQGLEWMGFINPYNDDIQSNERFRGRVTITSDKSTTTAYMELSSLRSEDTAVYYCARGAGYNFDGAYRFFDFWGQGTLVTVSS
VL: B1 VL with S14T, D17Q, Q18P, L42Q, K44R, K50R, L88V, I90V, L109V

binding (hTRBC1, BIM0444 (human) [3]): binds | binding (hTRBC1, BIM0444 (human) [4]): binds
B3: BIM0446 (JOVI.1 Fab) (Fab, V domains shown)
VH: B1 VH
VL: B1 VL

Source: patent US20230333112A1
